Drawing on PubChem BioAssay AID1487 (National Center for Advancing Translational Sciences (NCATS), 2009), this text covers AC50 for 35 compounds.

Some of the results follow. These are further read-outs of the screen, such as a control signal, another cell line or another target. No call is given for them. Most of these compounds were active or inconclusive in the main read-out, so they are no random draw. Words in brackets tell the shape of the fitted curve; partial curves, single points and poor fits give uncertain potencies.

The assay is described as follows: qHTS Assay for Modulators of Lamin A Splicing. The note with it: HeLa LMNA splicing GFP/RFP minigene ratio, 48 h. The gist of the method: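 S3 HeLa stable clones carrying a lamin A-EGFP splicing minigene plus DsRed2 were seeded at 600 cells/well in Opti-MEM with 2% FBS, pin-dosed and incubated 48 h at 37°C. Acumen cytometry (488 nm) gave the GFP/RFP total-intensity ratio.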

The mark [1] stands for this setting: measured here: GFP splicing reporter channel.
The mark [2] stands for this setting: measured here: RFP viability control channel.

Take `Cc1ccc(Oc2nnc(-c3ccccc3)c3ccccc23)cc1`: the AC50 is 22.4 µM [falling, single point] under setting [1] and 17.8 µM [falling, partial curve] under setting [2].
Regarding `COc1ccc(Br)cc1CNC(=O)C1CCN(S(=O)(=O)N2CCC(C)CC2)CC1`, the AC50 under setting [1] is 35.5 µM [rising, single point] and the AC50 under setting [2] is 35.5 µM [rising, single point].
Consider `CO/N=C/c1cn(-c2ccc(Cl)cc2)nn1`, for which the AC50 under setting [1] is 22.4 µM [rising, single point].
For `CNCCOc1ccccc1OC(C)C`, the AC50 under setting [2] is 7.08 µM [falling, full curve, poor fit].
On to `Cc1ccccc1OCCc1c(C)[nH]c(=S)[nH]c1=O`, for which, under setting [1], the AC50 is 0.0708 µM [rising, full curve, poor fit].
For the compound `CC(NC(=O)CC(c1ccccc1)c1cc(Cl)ccc1O)c1ccccc1` (stereo not given), the AC50 under setting [1] is 14.1 µM [rising, partial curve] and the AC50 under setting [2] was 35.5 µM [rising, partial curve].
`CCc1ccc(/C=C/c2c[nH]c3ccccc23)[n+](CC)c1`: the AC50 reads like this: under setting [1], 1 µM [rising, full curve]; under setting [2], 2.82 µM [rising, full curve].
On to `COc1cc2c(cc1OC)CN(Cc1cc(=O)oc3c(C)c(C)ccc13)CC2`, for which the AC50 under setting [2] is 35.5 µM [rising, single point].
Still for that read-out and setting: the same measure for `O=C(/C=C/c1ccc2c(c1)OCCCO2)c1ccc2ccccc2c1O`: 35.5 µM [falling, single point]; for `Cc1ccc(N(C(=O)c2cc3ccccc3oc2=O)C2C=CS(=O)(=O)C2)cc1` (stereo not given): 10 µM [rising, partial curve].
With `O=C(N=Nc1c(O)[nH]c2ccccc12)c1cc(NS(=O)(=O)c2cccs2)cc(NS(=O)(=O)c2cccs2)c1`, under setting [2], the AC50 was 11.2 µM [falling, single point].
With `O=C(/C=C\c1ccc2c(c1)OCO2)Nc1c2c(nn1-c1ccc(Cl)cc1)CSC2`, the AC50 is, setting by setting: under setting [1], 10 µM [rising, partial curve, poor fit]; under setting [2], 17.8 µM [rising, partial curve].
Turning to `COC(=O)CNC(c1ccccc1Cl)c1cc(Br)ccc1NC(=O)CCN1CCOCC1` (stereo not given), the AC50 runs as follows: under setting [1], 15.8 µM [falling, single point]; under setting [2], 22.4 µM [falling, single point].
As to `COc1ccc(C(=O)Nc2ccc(N3CCC(C)CC3)cc2)cc1Br`, under setting [2], the AC50 is 0.0708 µM [rising, full curve, poor fit].
Regarding `CCOC(=O)c1cc2c(ccn2C)n1CC(=O)N1CCN(c2ccccc2OC)CC1`, the AC50 under setting [2] was 35.5 µM [rising, single point].
On to `Cc1ccc(NC(=O)c2ccc(C(C)(C)C)cc2)cc1[N+](=O)[O-]`, for which the AC50 is, setting by setting: under setting [1], 12.6 µM [rising, partial curve]; under setting [2], 35.5 µM [rising, single point].
As for `O=C(Nc1sc2c(c1C(=O)O)CCC2)c1cccs1`, the AC50 is 10 µM [rising, partial curve, poor fit] under setting [1] and 12.6 µM [rising, single point] under setting [2].
In the case of `Oc1c(C(c2ccccn2)N2CCOCC2)ccc2cccnc12` (stereo not given), the AC50 was 0.891 µM [falling, full curve] under setting [1] and 0.891 µM [falling, full curve] under setting [2].
`O=C(C1CCCN(S(=O)(=O)c2cccc3nonc23)C1)N1CCC(Cc2ccccc2)CC1` (stereo not given): the AC50 reads like this: under setting [1], 1.58 µM [rising, full curve, poor fit]; under setting [2], 11.2 µM [rising, partial curve].
Take `O=C(Nc1ccccc1N1CCN(c2ccccc2)CC1)c1cccc(F)c1`: the AC50 under setting [2] was 22.4 µM [rising, single point].
On the same count and under the same terms, the value for `COc1cc(C)nc(N2CCCC(C(=O)Nc3cccc(Cl)c3C)C2)n1` (stereo not given) was 4.47 µM [rising, single point].
On to `N=C(N)SCc1cn(-c2ccccc2)nc1-c1ccc(Br)cc1`, for which the AC50 by setting is: under setting [1], 0.355 µM [falling, partial curve, poor fit]; under setting [2], 8.91 µM [falling, partial curve, poor fit].
In the case of `Cc1ccc(NC(=O)c2c(C(F)(F)F)nn(C)c2SCc2ccc(Cl)cc2)cc1C`, the AC50 under setting [1] is 28.2 µM [rising, single point].
Turning to `CS(=O)(=O)N(Cc1ccc(C(=O)NCCSc2ccccn2)cc1)c1ccccc1`, the AC50 under setting [2] is 5.62 µM [rising, full curve].
Still for that read-out and setting: the value for `COC(=O)c1ccc(=O)n(CC(=O)c2ccc(Cl)cc2)c1` was 35.5 µM [rising, single point]; that for `Cc1cc(NC(=O)c2cccc(S(=O)(=O)N3CC(c4ccccc4)CC3=O)c2)no1` (stereo not given) was 12.6 µM [rising, partial curve].
As to `CCOc1ccc(C2CC(=O)Nc3nc(SCc4ccccc4C)[nH]c(=O)c32)cc1OC` (stereo not given), the AC50 is, setting by setting: under setting [1], 14.1 µM [falling, partial curve, poor fit]; under setting [2], 11.2 µM [falling, partial curve].
Regarding `CCC(C)/C(C)=N/NC(=O)CSc1nc2ccccc2[nH]1` (stereo not given), the AC50 under setting [2] is 3.98 µM [rising, partial curve, poor fit].
With `COc1ccc(-c2cc(-c3ccccc3)n[nH]2)c(O)c1`, under setting [1], the AC50 is 35.5 µM [falling, single point].
With `CN(CC(=O)Nc1ccc(N2CCOCC2)cc1)CC(=O)Nc1ccc(C(F)(F)F)cc1`, the AC50 under setting [1] was 11.2 µM [falling, partial curve] and the AC50 under setting [2] was 28.2 µM [falling, partial curve].
Regarding `Cc1[nH]c2ccccc2c1/C=C/C(=O)c1ccccc1`, the AC50 under setting [2] is 25.1 µM [rising, single point].
Still for that read-out and setting: the value for `CC1(c2ccc3ccccc3c2)NC(=O)N(CC(=O)NCc2cccs2)C1=O` (stereo not given) was 14.1 µM [rising, partial curve]; that for `Cc1c(Cl)cccc1NC(=O)Cn1c(=O)cc(C)c2c(C)nn(-c3cccc(F)c3)c21` was 35.5 µM [rising, single point].
For the compound `CCCNC(=O)Cn1nc(-c2ccc(C)cc2)c2cnc3ccc(CC)cc3c21`, the AC50 under setting [1] was 7.94 µM [falling, partial curve, poor fit] and the concentration at half-maximal activity (AC50) under setting [2] was 22.4 µM [falling, partial curve, poor fit].
For the compound `CCCc1nc2ccccc2c(C(=O)OCC(=O)NCc2ccc3c(c2)OCO3)c1CC`, the concentration at half-maximal activity (AC50) was 12.6 µM [rising, partial curve, poor fit] under setting [1] and 31.6 µM [rising, single point] under setting [2].
